Experimental findings from PMC5695791 are described below.

Residue numbers refer to the chain shown, from its start. No constants are given. Whether binding was seen depends on the method and setting. In cells and extracts the contact can be indirect. Binding calls can cover weak binding; strength is not graded here. For some of these results: Where a sequence is shown, tags or fusion partners need not be part of it.

Assay [1] addresses T1, endogenous signal peptide peptidase of HEK293 cells (human (endogenous in HEK293)) (UniProt Q8TCT9).
T1 sequence: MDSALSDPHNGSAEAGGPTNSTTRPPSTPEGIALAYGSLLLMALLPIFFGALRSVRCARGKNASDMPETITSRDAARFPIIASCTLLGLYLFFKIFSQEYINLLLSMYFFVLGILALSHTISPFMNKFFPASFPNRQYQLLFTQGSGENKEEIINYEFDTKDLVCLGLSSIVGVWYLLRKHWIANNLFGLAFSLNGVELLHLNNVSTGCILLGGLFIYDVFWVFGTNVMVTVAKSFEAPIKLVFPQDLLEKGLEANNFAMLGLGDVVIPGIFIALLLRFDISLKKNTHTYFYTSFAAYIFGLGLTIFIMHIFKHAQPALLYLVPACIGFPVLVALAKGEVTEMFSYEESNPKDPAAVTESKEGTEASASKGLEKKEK
The experiment in a line: co-IP; fluorescent-protein-tagged partner overexpressed in HEK293 cells, normoxia or 48 h hypoxia (1% O2); endogenous SPP precipitated with rabbit anti-SPP and Protein A Sepharose at 4°C, washed with PBS; blot with anti-GFP.

In assay [2] the target is T2, HA-tagged signal peptide peptidase, catalytically inactive mutant D219A (UniProt Q8TCT9).
T2 sequence: T1 sequence with D219A
The experiment in a line: co-IP; HA-SPP variant and fluorescent-protein-tagged partner co-expressed in HEK293 cells under normoxia; cell extract (50 mM TEA, 1 mM EDTA, pH 7.4) precipitated with rabbit anti-HA and Protein A Sepharose at 4°C, washed with PBS; blot with anti-GFP; IgG control-antibody gave no signal.

“HO-1 deletion variant HO-1-ΔN181 (human) (domain or fragment)”: in assay [1], the binding result is “binds”.
For “HO-1 deletion variant HO-1-ΔN262 (isolated anchor) (human) (domain or fragment)”, the figures for the binding entry in assay [1] and in assay [2] were “no binding” and “binds”, respectively.
Turning to “anchorless HO-1 variant GFP-HO-1-ΔC266 (human) (domain or fragment)”, the binding entry in assay [2] is recorded as “no binding”.
